Laboratory results: PubChem BioAssay AID1159579 (Peter MacCallum Cancer Centre, 2015)
Shown is an unselected part of about 2,000 deposited reagents. 549 of them (27%) count as active. 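Some migration ratios are negative; siRNAs with too few cells are inactive whatever their migration ratio.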 A number with no mark means an inactive call. The numbers tell different reagents against one gene apart. Not given: the time to read-out.

Test: 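Find genes whose silencing alters migration of lymphatic endothelial cells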 (follow-up of hits)
System: human dermal lymphatic endothelial cells
Knock-down reagent: single siRNA against human genes, 25 nM
Measurement: 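High content images of wound closure area and cell nuclei counts, each the average of two wells, expressed against mock transfection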
Direction: migration relative to mock: higher = more migration into the scratch; mean nuclei count: higher = more cells remaining
Rule for the call: 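a ratio of at most 0.6 or at least 1.3 marks altered migration and an active call; a mean nuclei count under 3300 forces an inactive call regardless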
Meaning of the calls: active = migration changed (impaired or accelerated); inactive = no migration change, or too few cells

gene symbol,siRNA no.,migration relative to mock,migration and cell number class,mean nuclei count
CRYM (crystallin mu),1,0.7,no change in migration or cell number,4458
CRYM (crystallin mu),2,0.71,no change in migration or cell number,4192
CRYM (crystallin mu),3,0.56 (active),migration reduced,5318
CRYM (crystallin mu),4,0.69,no change in migration or cell number,5064
ADCK1 (aarF domain containing kinase 1),1,0.08 (active),migration reduced,4067
ADCK1 (aarF domain containing kinase 1),2,0.71,no change in migration or cell number,7375
ADCK1 (aarF domain containing kinase 1),3,0.94,no change in migration or cell number,4986
ADCK1 (aarF domain containing kinase 1),4,0.86,no change in migration or cell number,7139
SACK1E (scaffolding CK1 anchoring protein E),1,1.04,no change in migration or cell number,4914
SACK1E (scaffolding CK1 anchoring protein E),2,1.14,no change in migration or cell number,5370
SACK1E (scaffolding CK1 anchoring protein E),3,0.88,no change in migration or cell number,5788
SACK1E (scaffolding CK1 anchoring protein E),4,0.15 (active),migration reduced,3938
MIEF1 (mitochondrial elongation factor 1),1,0.36 (active),migration reduced,5055
MIEF1 (mitochondrial elongation factor 1),2,0.6 (active),migration reduced,5698
MIEF1 (mitochondrial elongation factor 1),3,0.64,no change in migration or cell number,5134
MIEF1 (mitochondrial elongation factor 1),4,1.04,no change in migration or cell number,5142

Next part, starting with the last 4 of the part before.
gene symbol,siRNA no.,migration relative to mock,migration and cell number class,mean nuclei count
MIEF1 (mitochondrial elongation factor 1),1,0.36 (active),migration reduced,5055
MIEF1 (mitochondrial elongation factor 1),2,0.6 (active),migration reduced,5698
MIEF1 (mitochondrial elongation factor 1),3,0.64,no change in migration or cell number,5134
MIEF1 (mitochondrial elongation factor 1),4,1.04,no change in migration or cell number,5142
"ITPR1 (inositol 1,4,5-trisphosphate receptor type 1)",1,0.74,no change in migration or cell number,6116
"ITPR1 (inositol 1,4,5-trisphosphate receptor type 1)",2,1.29,no change in migration or cell number,5744
"ITPR1 (inositol 1,4,5-trisphosphate receptor type 1)",3,0.94,no change in migration or cell number,6135
"ITPR1 (inositol 1,4,5-trisphosphate receptor type 1)",4,0.88,no change in migration or cell number,4962
CPN2 (carboxypeptidase N subunit 2),1,0.57 (active),migration reduced,6493
CPN2 (carboxypeptidase N subunit 2),2,0.61,no change in migration or cell number,6468
CPN2 (carboxypeptidase N subunit 2),3,0.62,no change in migration or cell number,6103
CPN2 (carboxypeptidase N subunit 2),4,0.74,no change in migration or cell number,6347
TGFBR2 (transforming growth factor beta receptor 2),1,1.01,no change in migration or cell number,6527
TGFBR2 (transforming growth factor beta receptor 2),2,0.12,too few cells; migration not scored,2758
TGFBR2 (transforming growth factor beta receptor 2),3,0.8,no change in migration or cell number,5562
TGFBR2 (transforming growth factor beta receptor 2),4,0.74,no change in migration or cell number,5611
